The other results are listed elsewhere or left out.

In this assay the target is T1, OsSMF1 (Oryza sativa, UniProt Q6ZLB0 1-436).
T1 sequence: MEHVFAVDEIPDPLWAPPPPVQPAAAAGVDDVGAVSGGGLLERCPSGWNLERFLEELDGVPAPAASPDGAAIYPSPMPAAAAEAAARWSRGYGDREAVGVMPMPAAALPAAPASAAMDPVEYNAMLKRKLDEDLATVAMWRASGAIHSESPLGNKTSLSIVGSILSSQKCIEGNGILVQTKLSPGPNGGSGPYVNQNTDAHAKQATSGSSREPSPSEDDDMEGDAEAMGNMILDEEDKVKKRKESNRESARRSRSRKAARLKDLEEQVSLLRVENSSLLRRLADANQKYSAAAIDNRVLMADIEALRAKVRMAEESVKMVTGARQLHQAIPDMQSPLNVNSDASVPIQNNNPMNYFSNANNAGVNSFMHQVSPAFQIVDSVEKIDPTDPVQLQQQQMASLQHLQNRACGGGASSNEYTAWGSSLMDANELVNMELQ
In words: protein-binding microarray (RPBM); PBS, 2% BSA, 51.3 ng/ul salmon testes DNA, 50 uM zinc acetate, 200 nM TF, 25 C, 1 h; high values mean tight binding. Particulars: protein: recombinant; tags: N-terminal polyhistidine and DsRed monomer fusion (pET32a); chain copies: 2; label: CyDye5-dUTP incorporated in the synthesized complementary strand; 3' TTTTT single-stranded linker to array surface; dsDNA, one strand shown. The method in brief:
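Binding signal here means per-feature fluorescence intensity in arbitrary units. The values were read on an Axon 4000B scanner after a custom Agilent array, double-stranded by primer extension with Cy5-dUTP, was incubated with 200 nM protein at 25 °C for 1 h in PBS with 2% BSA, salmon testes DNA and 50 µM zinc acetate, then washed. The proteins were transcription factors with an N-terminal polyhistidine tag and DsRed, expressed in E. coli BL21-CodonPlus and purified on Ni–NTA.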
In the case of “ACTGTACGGTGTCAGAGAAAGAGGGCGTCAGTGCGTCACACGGAGTCACCTAGTGCAG”, the binding signal was 3320 fluorescence intensity (a.u.).
The value for “TGCCCTTACGAGTCACTTGTTGGAGACAGTCTTATAGCATCGGAGTCACCTAGTGCAG” was 3850 fluorescence intensity (a.u.).
“CACCCTGACCCACATGTCATTGACTCATGTGGGTCCGACACGGAGTCACCTAGTGCAG”: the binding signal is 3500 fluorescence intensity (a.u.).
In the case of “TGCTAACCCTGTTCCAGCTCAGCTCCATTGATGAACTACTCGGAGTCACCTAGTGCAG”, the binding signal was 4490 fluorescence intensity (a.u.).
Take “CGTCGTGCTCGTCGACGTCGTGCACTCCGTCGCCATCGTGCGGAGTCACCTAGTGCAG”: the binding signal is 3220 fluorescence intensity (a.u.).
To “TGCTGGCAAGTCACGCACAAGGGGAACACATTAGTTGTCACGGAGTCACCTAGTGCAG” belongs 4120 fluorescence intensity (a.u.); to “TAGCTGCCACCGCACGCGTAGGTCGTCGCCGCCGCTGCACCGGAGTCACCTAGTGCAG”, 4010 fluorescence intensity (a.u.).
To “GCCCTACTGCCCTTGACACGTCGTCCATCCCATCGAACCGCGGAGTCACCTAGTGCAG” belongs 10400 fluorescence intensity (a.u.).
Take “CCCCTTATCCACGAACCCCGACCGGCAGAGAGCGCAGACGCGGAGTCACCTAGTGCAG”: the binding signal was 37200 fluorescence intensity (a.u.).
Consider “ATCCGAAAACACCTTAGGTCTTGTTCGGTTTAGAGAGTATCGGAGTCACCTAGTGCAG”, for which the binding signal was 38000 fluorescence intensity (a.u.).
“GCGTAGAGTGTCCACATATCAAGGACTTCTAGTTTTACTTCGGAGTCACCTAGTGCAG”: the binding signal is 3260 fluorescence intensity (a.u.).
To “GTCGGGCCGGCGCGGCGGGCCTGGTGGCAGCGCGCGACGTCGGAGTCACCTAGTGCAG” belongs 3800 fluorescence intensity (a.u.); to “ACTGACTAGGATATACTACGTCAGTCAGAACAACCATCCACGGAGTCACCTAGTGCAG”, 4670 fluorescence intensity (a.u.).
To “ACGCGTCGCGTCGCGTGCGTGGGAGGGCAATCTCGTCCGTCGGAGTCACCTAGTGCAG” belongs 3490 fluorescence intensity (a.u.); to “GCCCACTTGCTGACAACGCAGTTAGTTCGCCGAAGCCAACCGGAGTCACCTAGTGCAG”, 8250 fluorescence intensity (a.u.); to “TTTGGTACTCCGATCCCGTTCATCATTGCGTCAGGGCTTACGGAGTCACCTAGTGCAG”, 4920 fluorescence intensity (a.u.).
Consider “GCTCTTGAGAATGTTGCTGAGTTGTCAGCTCTCTCCACCCCGGAGTCACCTAGTGCAG”, for which the binding signal was 15700 fluorescence intensity (a.u.).
To “GTGCAACCGTGCAAGCTTTGTTTATTTGACAGCACAACTCCGGAGTCACCTAGTGCAG” belongs 3560 fluorescence intensity (a.u.).
As for “AAATGGCAACGTGCTAATATAACTTCCTCCCCTTCTTACCCGGAGTCACCTAGTGCAG”, the binding signal was 3200 fluorescence intensity (a.u.).
The value for “CATATATAGTCTTTGTCATGTTATTCCCAAGACTTACTTCCGGAGTCACCTAGTGCAG” was 3570 fluorescence intensity (a.u.); that for “AGCCCAATTTCACTTGCGGATTTGTGTGACAGTGTGACACCGGAGTCACCTAGTGCAG” was 4650 fluorescence intensity (a.u.).
The value for “TTGTATTGCTGATACATGTTGTAATAGCCGAGTCTCCTACCGGAGTCACCTAGTGCAG” was 3480 fluorescence intensity (a.u.); that for “AGCCCTCACCCGAAGAACACGGTACACGTGGCACCTAACCCGGAGTCACCTAGTGCAG” was 15900 fluorescence intensity (a.u.).
To “TATTGATTGTTACAACATGTTTGGAATTAGCTGAACTGAGCGGAGTCACCTAGTGCAG” belongs 3330 fluorescence intensity (a.u.); to “GGCGTAAAAGAAAGAGGAGAAATTCTCCCGTCGTCTCCTTCGGAGTCACCTAGTGCAG”, 24700 fluorescence intensity (a.u.); to “CGCGAGACAGTCAGCACCAATCGCTCACCTTGCTCGATGCCGGAGTCACCTAGTGCAG”, 3500 fluorescence intensity (a.u.).
For “CACTCCTGCTGCCGTCCAGTTGCAATTGCGTTTTCTCCTTCGGAGTCACCTAGTGCAG”, the binding signal is 3220 fluorescence intensity (a.u.).
To “ACTCGACCAGCCCCGCCAGCTTGAGCTCGCTCACTTCTGCCGGAGTCACCTAGTGCAG” belongs 4640 fluorescence intensity (a.u.); to “AAATTCTTACTAACACTGATGTGTCATGCTATGAGTGCATCGGAGTCACCTAGTGCAG”, 4940 fluorescence intensity (a.u.); to “ATCTTAATTGTCAACGCTGTTTGTGCAATAATCTTCAGCTCGGAGTCACCTAGTGCAG”, 3140 fluorescence intensity (a.u.).
To “TTCCTTGCCGTTTAACAGCACACCAAGGTTAGTACTAGCACGGAGTCACCTAGTGCAG” belongs 3920 fluorescence intensity (a.u.).
To “CTCGCTCTGTTGAGTCTTTATCGCACGTACACATGTCTGTCGGAGTCACCTAGTGCAG” belongs 3320 fluorescence intensity (a.u.); to “TACCTATCGGTGAAAATATGTCAGGGACATGGTGGTATACCGGAGTCACCTAGTGCAG”, 3210 fluorescence intensity (a.u.).
For “CTGTATTTTGATCATTTTGATTCACACAATAACACCAGCGCGGAGTCACCTAGTGCAG”, the binding signal was 3220 fluorescence intensity (a.u.).
The value for “CAATTCGACGCCCCACGTATGGCCCACTTGCAGGCCAGCCCGGAGTCACCTAGTGCAG” was 4190 fluorescence intensity (a.u.); that for “TGAAGATAGATGTCTCGAAGTCGAGCGACGTCATGGCGGCCGGAGTCACCTAGTGCAG” was 3280 fluorescence intensity (a.u.); that for “GACGGGGAGGTGGGTGAGTCATGGGCTGACCCAATAACAGCGGAGTCACCTAGTGCAG” was 5440 fluorescence intensity (a.u.).
To “CGAGTCAAGTCATGCTGAGGTGGAAGAAACTCCGATAGGACGGAGTCACCTAGTGCAG” belongs 6710 fluorescence intensity (a.u.); to “GATGAGGGAGAAGGAGGTGTAGAGACTGACGTGTGGGCCCCGGAGTCACCTAGTGCAG”, 3670 fluorescence intensity (a.u.).
The value for “ACTACTTACTACAAATTGAAAGACGCGTCATGTCTGCTGTCGGAGTCACCTAGTGCAG” was 8180 fluorescence intensity (a.u.).
Regarding “AATTTGAGTTTATGACGCGTAGGCCCAATGATTTGTAAGGCGGAGTCACCTAGTGCAG”, the binding signal was 3610 fluorescence intensity (a.u.).
Regarding “GCGCCGATGGTCAGGCCTGCCACATCACCACTTCACTTGGCGGAGTCACCTAGTGCAG”, the binding signal is 21800 fluorescence intensity (a.u.).

(Values after publication PMC7819943, “Rice protein-binding microarrays: a tool to detect cis-acting elements near promoter regions in rice”.)
